According to PubChem BioAssay AID2014 (Sanford-Burnham Center for Chemical Genomics, 2009):
The other results are listed elsewhere or left out.

By UniProt entry, the sequences of proteins in these tests, tags left out.
UniProt P11940, whole entry: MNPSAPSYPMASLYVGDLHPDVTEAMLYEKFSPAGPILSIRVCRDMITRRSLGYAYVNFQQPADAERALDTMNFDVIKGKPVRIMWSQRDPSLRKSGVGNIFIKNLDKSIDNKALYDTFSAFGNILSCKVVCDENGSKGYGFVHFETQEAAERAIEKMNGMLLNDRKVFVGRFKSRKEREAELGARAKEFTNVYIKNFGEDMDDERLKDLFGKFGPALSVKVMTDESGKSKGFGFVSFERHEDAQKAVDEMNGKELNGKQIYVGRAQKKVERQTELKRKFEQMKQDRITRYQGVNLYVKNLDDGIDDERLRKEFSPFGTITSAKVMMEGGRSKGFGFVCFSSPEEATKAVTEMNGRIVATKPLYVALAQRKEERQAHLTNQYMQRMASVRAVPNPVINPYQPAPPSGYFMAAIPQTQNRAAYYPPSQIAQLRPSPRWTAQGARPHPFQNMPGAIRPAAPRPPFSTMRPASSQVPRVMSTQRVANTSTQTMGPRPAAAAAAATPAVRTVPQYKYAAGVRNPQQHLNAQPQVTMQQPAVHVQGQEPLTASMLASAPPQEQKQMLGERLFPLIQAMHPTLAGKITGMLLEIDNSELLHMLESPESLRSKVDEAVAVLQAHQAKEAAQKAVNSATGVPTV

target: Polyadenylate-binding protein 1 (Homo sapiens) (UniProt P11940); experiment: PABP poly(A) RNA binding inhibitors, primary screen, biochemical, fluorescence polarization, uHTS (AID 2014); settings: confirmation repeats, at 20 µM, stronger effect = higher value

Which inhibition does the source give for `CCCN1CCC(Nc2cc(OC)cc(OC)c2)CC1` here?
Its inhibition is 30.1%.
